Laboratory results published in the supplement of paper PMC12542422.
Where a name gives a salt, the structure may show the parent alone. ± gives the standard deviation of the averaged measurements. This is one part of the list. Values are raw readings; no control value is given beside them.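 Across three biological replicates, HeLa cells were imaged for ribosome assembly using ENP1 staining (export block present or absent) or inducible tagged ribosomal protein reporters. Machine learning classified each cell's signal localization relative to DMSO controls. Hits exceeded the DMSO false-positive mean by five standard deviations and were then visually confirmed.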

system: HeLa K (ENP1 immunofluorescence, +LMB); experiment: fraction of cells with nucleolar or nucleolar/nucleoplasmic ENP1 signal (MainHitrate); higher = more cells with nucleolar/nuclear readout signal (for ENP1 -LMB: less RNAPI inhibition; for +LMB ENP1 and RP reporters: stronger nuclear/nucleolar retention, i.e. ribosome biogenesis defect); conditions: concentration: 1 µM; treatment time: 6 h; ENP1 +LMB; leptomycin B: 20 nM, last 1.5 h

| SMILES | fraction |
| --- | --- |
| NS(=O)(=O)c1cc2c(cc1C(F)(F)F)NC(Cc1ccccc1)NS2(=O)=O (centres undefined) [Bendroflumethiazide] | 0.103 ± 0.12 |
| CS(=O)(=O)CCNCc1ccc(-c2ccc3ncnc(Nc4ccc(OCc5cccc(F)c5)c(Cl)c4)c3c2)o1 [Lapatinib Ditosylate (Tykerb)] | 0.0744 ± 0.055 |
| Nc1ccn([C@@H]2O[C@H](CO)[C@@H](O)[C@@H]2O)c(=O)n1 [Cytarabine] | 0.132 ± 0.17 |
| CC(C)(S)[C@@H](N)C(=O)O [Penicillamine (Cuprimine)] | 0.142 ± 0.19 |
| O=c1cc[nH]c(=O)[nH]1 [Uracil] | 0.0311 ± 0.033 |
| C[C@@]12C[C@@]3(O)O[C@@H](O1)[C@]1(COC(=O)c4ccccc4)[C@H]3C[C@@]12O[C@@H]1O[C@H](CO)[C@@H](O)[C@H](O)[C@H]1O [Paeoniflorin] | 0.177 ± 0.28 |
| c1ccc(C2CN3CCSC3=N2)cc1 (centres undefined) [Tetramisole HCl] | 0.0619 ± 0.081 |
| NC(=O)N/N=C/c1ccc([N+](=O)[O-])o1 [Nitrofurazone (Nitrofural)] | 0.112 ± 0.12 |
| O=C(O)Cc1ccccc1Nc1c(Cl)cccc1Cl [Diclofenac] | 0.0906 ± 0.13 |
| CC(C(=O)O)c1ccc2c(c1)[nH]c1ccc(Cl)cc12 (centres undefined) [Carprofen] | 0.0805 ± 0.11 |
| CC(=O)Nc1ccccc1 [Acetanilide (Antifebrin)] | 0.107 ± 0.16 |
| CCN(CC)CCOc1ccc(C(=C(Cl)c2ccccc2)c2ccccc2)cc1 [Clomifene citrate (Serophene)] | 0.112 ± 0.17 |
| CCS(=O)(=O)CCn1c([N+](=O)[O-])cnc1C [tinidazole] | 0.0601 ± 0.06 |
| Cc1ccc(-c2cc(C(F)(F)F)nn2-c2ccc(S(N)(=O)=O)cc2)cc1 [Celecoxib] | 0.125 ± 0.16 |
| CC(C)(Sc1cc(C(C)(C)C)c(O)c(C(C)(C)C)c1)Sc1cc(C(C)(C)C)c(O)c(C(C)(C)C)c1 [Probucol] | 0.111 ± 0.17 |
| CN1CCC(OC(c2ccccc2)c2ccccc2)CC1 [Diphenylpyraline HCl] | 0.0862 ± 0.09 |
| C[C@]12CCC(=O)C=C1CC[C@@H]1[C@@H]2[C@@H](O)C[C@@]2(C)[C@H]1CC[C@]2(O)C(=O)CO [Hydrocortisone (Cortisol)] | 0.0535 ± 0.027 |
| CNC[C@@H](O)c1ccc(O)c(O)c1 [L-Adrenaline (Epinephrine)] | 0.0787 ± 0.11 |
| CC(C)Cn1cnc2c(N)nc3ccccc3c21 [Imiquimod] | 0.126 ± 0.14 |
| C=C(NC(=O)C(=C)NC(=O)c1csc(C2=N[C@@H]3c4csc(n4)[C@H]4NC(=O)c5csc(n5)[C@H]([C@](C)(O)[C@@H](C)O)NC(=O)[C@H]5CSC(=N5)/C(=C/C)NC(=O)[C@H]([C@@H](C)O)NC(=O)c5csc(n5)[C@]3(CC2)NC(=O)[C@H](C)NC(=O)C(=C)NC(=O)[C@H](C)NC(=O)[C@H]([C@@H](C)CC)N[C@@H]2C=Cc3c([C@H](C)O)cc(nc3[C@H]2O)C(=O)O[C@@H]4C)n1)C(N)=O [Thiostrepton] | 0.181 ± 0.23 |

For convenience, part of the list above.

| SMILES | fraction |
| --- | --- |
| CC(C)(S)[C@@H](N)C(=O)O [Penicillamine (Cuprimine)] | 0.142 ± 0.19 |
| O=c1cc[nH]c(=O)[nH]1 [Uracil] | 0.0311 ± 0.033 |

The list continues:

| SMILES | fraction |
| --- | --- |
| CC(O)(P(=O)(O)O)P(=O)(O)O [Etidronate (Didronel)] | 0.0982 ± 0.14 |
| C[C@@H]1C[C@H]2[C@@H]3CCC4=CC(=O)C=C[C@]4(C)[C@@]3(F)[C@@H](O)C[C@]2(C)[C@@]1(O)C(=O)CO [Dexamethasone] | 0.0618 ± 0.042 |
| O=C(O)c1cc(=O)c2ccccc2o1 [Chromocarb] | 0.0802 ± 0.12 |
| COc1ccc([C@@H]2Sc3ccccc3N(CCN(C)C)C(=O)[C@@H]2OC(C)=O)cc1 [Diltiazem HCl (Tiazac)] | 0.131 ± 0.2 |
| CN1CCC(=C2c3ccccc3CC(=O)c3sccc32)CC1 [Ketotifen fumarate (Zaditor)] | 0.114 ± 0.17 |
| Cc1ncc([N+](=O)[O-])n1CC(O)CCl (centres undefined) [Ornidazole] | 0.0621 ± 0.078 |
| COc1cc2nc(N3CCN(C(=O)C4CCCO4)CC3)nc(N)c2cc1OC (centres undefined) [Terazosin HCl (Hytrin)] | 0.113 ± 0.16 |
| COc1ccccc1OCC(O)CO (centres undefined) [Guaifenesin (Guaiphenesin)] | 0.0986 ± 0.097 |
| CC(C)c1nc(CN(C)C(=O)N[C@H](C(=O)N[C@@H](Cc2ccccc2)C[C@H](O)[C@H](Cc2ccccc2)NC(=O)OCc2cncs2)C(C)C)cs1 [Ritonavir] | 0.0677 ± 0.035 |
| CCC1(c2ccccc2)C(=O)NCNC1=O [Primidone (Mysoline)] | 0.103 ± 0.15 |
| CS(=O)(=O)c1ccc(C(=O)Nc2ccc(Cl)c(-c3ccccn3)c2)c(Cl)c1 [Vismodegib (GDC-0449)] | 0.0597 ± 0.045 |
| NC(=O)c1ncn([C@@H]2O[C@H](CO)[C@@H](O)[C@H]2O)c1N [Acadesine] | 0.0418 ± 0.041 |
| CN(C)CCC(c1ccc(Cl)cc1)c1ccccn1 (centres undefined) [Chlorpheniramine Maleate] | 0.0526 ± 0.067 |
| CC(C)(Oc1ccc(CCNC(=O)c2ccc(Cl)cc2)cc1)C(=O)O [Bezafibrate] | 0.0396 ± 0.043 |
| CN(C)CCOc1ccc(/C(=C(/CCCl)c2ccccc2)c2ccccc2)cc1 [Toremifene Citrate (Fareston, Acapodene)] | 0.103 ± 0.12 |
| Nc1ccc(S(=O)(=O)Nc2nccs2)cc1 [Sulfathiazole] | 0.0505 ± 0.05 |
| C[C@]12CC[C@@H]3c4ccc(O)cc4CC[C@H]3[C@@H]1CC[C@@H]2O [Estradiol] | 0.0451 ± 0.022 |
| C[C@@H]1C/C=C/C=C/C=C/C=C/[C@H](O[C@@H]2O[C@H](C)[C@@H](O)[C@H](N)[C@@H]2O)C[C@@H]2O[C@](O)(C[C@@H](O)C[C@H]3O[C@@H]3/C=C/C(=O)O1)C[C@H](O)[C@H]2C(=O)O [Natamycin (Pimaricin)] | 0.0999 ± 0.093 |
| C[C@](N)(Cc1ccc(O)c(O)c1)C(=O)O [Methyldopa (Aldomet)] | 0.123 ± 0.14 |
